Source: PubChem BioAssay AID2685 (National Center for Advancing Translational Sciences (NCATS), 2010)
This is one part of the list. The main result of the screen is listed elsewhere. These columns were measured beside it and carry no call. Compounds called inactive in the main read-out are mostly missing here. Potencies come from curve fits of mixed quality, noted in brackets.

Experiment: qHTS Assay for Lipid Storage Modulators in Drosophila S3 Cells;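 for cell number change: cells counted by Cell Tracker Red CMTPX staining in the red channel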
Settings: BODIPY lipid droplet fluorescence, 18-24 h; for cell number change: measured here: cell count max response, cells fed with added oleic acid
Outline: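 Drosophila S3 cells loaded with oleic acid (400 uM, as added) and compounds at several concentrations; lipid droplets imaged by 488-nm laser-scanning cytometry, 500–530 nm intensity and object ratio to cell channel. Percent activity normalized to 20 uM Triacsin C.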

[1] = measured here: lipid fluorescence (Fed channel) AC50, cells fed with added oleic acid
[2] = measured here: cell number channel AC50, cells fed with added oleic acid

CCC(=O)c1ccc(OCC(=O)N2CCN(C(=O)c3ccccc3)CC2)cc1
cell number change: 4.96%
AC50 [1]: 14.6 µM [rising, partial curve]

COc1ccc(Br)c(C(=O)NCCC(C)C)c1
cell number change: 9%
AC50 [1]: 10.3 µM [rising, partial curve]

COc1cc(C)c(NC(=O)COc2ccc3c(c2)OCO3)cc1C
cell number change: 23.9%

COc1ccccc1C(=O)NC(=O)COC(=O)CCS(=O)(=O)c1ccc(C)cc1
cell number change: -7.8%

Cc1sc2ncnc(SCC(=O)Nc3ncccc3O)c2c1C
cell number change: 2.27%
AC50 [1]: 4.11 µM [rising, single point]

COc1cccc(CNC(=O)c2cccc(NC(=O)CC3SC(N4CCCCC4)=NC3=O)c2)c1 (stereo not given)
cell number change: 7.46%
AC50 [1]: 0.731 µM [rising, single point]

CCOC(=O)c1cn(CC)c2cc(F)c(F)cc2c1=O
cell number change: 6.55%
AC50 [1]: 10.3 µM [rising, partial curve, poor fit]

COC(CNC(=O)CCc1c(C)nc2c(-c3ccc(F)cc3)c(C)nn2c1C)OC
cell number change: 40.9%
AC50 [2]: 4.61 µM [rising, full curve]
AC50 [1]: 3.66 µM [rising, partial curve]

CC(C)NC1CS(=O)(=O)CC1O (stereo not given)
cell number change: -43.1%
AC50 [2]: 29.1 µM [falling, single point]

Cc1nn2c(=O)cc(CSc3ccccc3NC(=O)c3ccccc3)nc2s1
cell number change: 27.1%
AC50 [2]: 3.66 µM [falling, single point]
AC50 [1]: 0.259 µM [falling, full curve]

Cc1ccc(NCC(=O)N/N=C/c2cc3ccccc3nc2Cl)cc1
cell number change: -37%
AC50 [2]: 8.2 µM [falling, partial curve]
AC50 [1]: 13 µM [falling, partial curve]

CC1(C)Cc2nc3oc4c(=O)n(CC(=O)Nc5cccc(Cl)c5)cnc4c3cc2CO1
cell number change: -6.97%
AC50 [1]: 0.92 µM [falling, partial curve]

NC(=O)c1ccc(CN2CCc3ccccc3C2)cc1
cell number change: -7.41%
AC50 [1]: 6.51 µM [falling, single point]

CCOc1ccccc1NC(=O)CSc1nnnn1-c1ccc(C(=O)OC)cc1
cell number change: 17.3%
AC50 [1]: 10.3 µM [rising, partial curve]

FCCCOc1ccc(/C=N/OCc2ccc(Cl)cc2)cc1
cell number change: 31.6%
AC50 [2]: 32.6 µM [rising, single point]
AC50 [1]: 1.84 µM [rising, partial curve, poor fit]

Cc1cccc(C(=O)NC(C(=O)Nc2nc(-c3ccccn3)cs2)C(C)C)c1 (stereo not given)
cell number change: 10.7%
AC50 [2]: 3.26 µM [rising, single point]
AC50 [1]: 0.0291 µM [rising, full curve, poor fit]

Cc1cccc(N/N=C(\C#N)S(=O)(=O)C(C)(C)C)c1
cell number change: 18.1%

O=C1OCC=C1NNC(=O)c1cccnc1
cell number change: -19.7%
AC50 [1]: 6.51 µM [rising, partial curve, poor fit]

CCOc1ccc(NC(=O)NCCN2CCN(c3cccc(C)c3C)CC2)cc1
cell number change: -4.5%
AC50 [1]: 3.26 µM [rising, full curve]

Cc1ccc(NC(=O)C(=O)NCCCN2CCOCC2)c(C)c1
cell number change: 15.7%
AC50 [1]: 11.6 µM [rising, single point]

Cc1cccc2sc(N(CCCN(C)C)C(=O)c3nc4ccccc4s3)nc12
cell number change: 11.2%
AC50 [1]: 0.651 µM [falling, partial curve, poor fit]

Cc1ccccc1-c1ccccc1N
cell number change: -25.3%
AC50 [1]: 1.16 µM [falling, full curve]

Cc1cc(C)c(NC(=O)CCCC(=O)O)c(Cl)c1
cell number change: 22%
AC50 [1]: 29.1 µM [falling, single point]

CN(NC(=O)c1ccccc1)c1nc2ccccc2nc1C(F)(F)F
cell number change: -13.1%
AC50 [2]: 1.03 µM [rising, partial curve]
AC50 [1]: 0.731 µM [rising, partial curve]

CC(C)c1cc(NC(=O)CSc2nnc(-c3ccccc3F)n2C)on1
cell number change: -7.17%
AC50 [1]: 2.06 µM [falling, partial curve]

CCOc1ccc(C(=O)CN2CCN(S(=O)(=O)c3ccc(Br)cc3)CC2)cc1
cell number change: 47.5%
AC50 [2]: 29.1 µM [rising, single point]

CCN(CC)CCC(=O)Nc1cccc2c1C(=O)c1ccccc1C2=O
cell number change: -38.9%
AC50 [1]: 13 µM [falling, partial curve]

CCOc1ccccc1-c1n[nH]c(=S)o1
AC50 [1]: 0.92 µM [falling, full curve]

COc1ccc(CCNC(=O)c2ccccc2NS(=O)(=O)c2c(F)cccc2F)cc1
cell number change: 3.95%

Cc1cccc(C)c1NC(=O)COC(=O)c1ccccc1O
cell number change: 13.8%
AC50 [1]: 0.103 µM [rising, partial curve, poor fit]

FC(F)(F)c1cc(-c2ccco2)nc(NCc2ccc(Cl)cc2)n1
cell number change: -24.4%
AC50 [1]: 6.51 µM [rising, full curve]

COc1ccc(NC2CCCN(C(=O)Cn3ccc(C)n3)C2)cc1OC (stereo not given)
cell number change: 1.36%

COc1ccc(Cn2c(=O)[nH]c3cc(C(=O)NCCCN4CCCCCC4)ccc3c2=O)cc1
cell number change: 70.6%

Cc1cccc(N2CN(Cc3ccco3)CNC2=S)c1C
cell number change: 14%
AC50 [1]: 20.6 µM [rising, single point]

Cc1cc(N2CCOCC2)nc(SCC(=O)OCc2ccccc2)n1
cell number change: 21%
AC50 [1]: 32.6 µM [rising, single point]

Cc1ccc(C(O)Cn2nc(C)cc2C)cc1 (stereo not given)
cell number change: -19.3%
AC50 [1]: 0.411 µM [rising, full curve, poor fit]

O=C(COc1ccc(Cl)cc1)NCc1nnc(SCC(=O)Nc2ccccc2)o1
AC50 [2]: 6.51 µM [falling, single point]
AC50 [1]: 6.51 µM [falling, single point]

COc1ccc(NC(=O)COc2ccc(N(C)S(=O)(=O)c3ccc(Cl)cc3)cc2)cc1
cell number change: -24.6%
AC50 [1]: 1.84 µM [rising, partial curve]

O=C(O)CC12CC3CC(C1)CC(n1ncc(NCc4ccc(F)cc4Cl)c(Cl)c1=O)(C3)C2
cell number change: -16%
AC50 [2]: 0.461 µM [falling, full curve, poor fit]

CCCc1cc(=O)oc2c(C)c(OCC(=O)N3CCC[C@@H]3C(=O)O)ccc12
cell number change: 24.3%
AC50 [2]: 0.146 µM [rising, full curve, poor fit]

O=C(O)c1c2c(nc3ccccc13)/C(=C/c1cccc([N+](=O)[O-])c1)CCC2
cell number change: 10.5%
AC50 [1]: 29.1 µM [rising, single point]

CC(OC(=O)c1ccccn1)C(=O)Nc1ccc(C(F)(F)F)cc1 (stereo not given)
cell number change: -12%

COc1c(OC2OC(C(=O)O)C(O)C(O)C2O)cc(O)c2c(=O)cc(-c3ccccc3)oc12 (stereo not given)
cell number change: 1.98%
AC50 [1]: 18.4 µM [rising, single point]

CC(C)(C)NC(=O)COC(=O)c1ccc(S(=O)(=O)N2CCCC2)cc1
cell number change: -110%
AC50 [1]: 29.1 µM [falling, single point]

COc1ccc(/C=C2\SC(=S)N(NS(=O)(=O)c3ccc(C)cc3)C2=O)c(OC)c1
cell number change: -14.4%
AC50 [1]: 20.6 µM [rising, single point]

Cc1ccc2c(c1)c1c(n2CC(O)CN2CCOCC2)CCCC1 (stereo not given)
cell number change: 15%

O=C(O)CCn1c(-c2ccccc2)cc2c1CCCC2=O
cell number change: 31%
AC50 [2]: 13 µM [rising, single point]

CC(C)(Cc1ccc(O)cc1)NC(=O)CC(=O)N=Nc1c(O)[nH]c2cc(Br)ccc12
cell number change: -1.56%
AC50 [1]: 0.0058 µM [falling, full curve, poor fit]

FC(F)(F)C(F)(F)c1nnc2ccc(-n3ccnc3)nn12
cell number change: 18.6%
AC50 [2]: 3.26 µM [rising, single point]
AC50 [1]: 6.51 µM [rising, single point]

Cc1ccc([N+](=O)[O-])cc1NC(=O)c1ccoc1C
cell number change: -1.38%
AC50 [1]: 4.11 µM [rising, full curve, poor fit]

CC1CCN(C(=O)CSCC(=O)Nc2nc(-c3cccs3)cs2)CC1
cell number change: -14.2%
AC50 [1]: 10.3 µM [falling, partial curve, poor fit]

O=C(Nc1c(C(=O)N2CCOCC2)cnn1-c1ccccc1)c1ccc([N+](=O)[O-])cc1
cell number change: -33.7%
AC50 [2]: 32.6 µM [falling, single point]

COc1ccc(/C=C2\N=C(C)N(c3ccc4ccccc4c3)C2=O)cc1OC
AC50 [1]: 32.6 µM [falling, single point]

NS(=O)(=O)c1cccc(NC(=O)COC(=O)Cc2ccc(S(=O)(=O)N3CCCCC3)s2)c1
cell number change: -30.6%
AC50 [2]: 9.2 µM [falling, single point]
AC50 [1]: 2.06 µM [falling, partial curve]

CC(C)Oc1cccc(C(=O)Nc2ccccc2N2CCOCC2)c1
cell number change: 25.1%
AC50 [1]: 8.2 µM [rising, partial curve]

COc1ccc(C(=O)N/N=C(/C)c2cccc(NC(=O)c3ccccc3F)c2)cc1
cell number change: -27%
AC50 [1]: 8.2 µM [falling, single point]

COc1ccccc1C(=O)COC(=O)c1ccccc1O
cell number change: 4.24%

COC(=O)[C@@H](Cc1c[nH]c2ccccc12)NC(=O)CCC(=O)c1ccc(F)cc1
cell number change: 7.91%

CCOC(=O)c1ccc(NC(=O)Nc2ccc(Cl)cn2)cc1
cell number change: -20.1%
AC50 [1]: 4.61 µM [falling, full curve]

Cc1c(C#N)c2ccccc2n1CC(=O)NCc1cccnc1
cell number change: 31.5%
AC50 [2]: 11.6 µM [rising, partial curve]
AC50 [1]: 1.84 µM [falling, partial curve]

O=C(Nc1ccc(S(=O)(=O)Nc2ncccn2)cc1)c1nn(Cc2ccccc2)c(=O)c2ccccc12
cell number change: 10.4%

C=CCN(C(=O)CCC(=O)Nc1cc(C)on1)C(C(=O)NC1CCCC1)c1cccnc1 (stereo not given)
cell number change: -13.6%
AC50 [1]: 0.651 µM [rising, full curve]
